Reference: publication PMC10326445
For at least one entry, the source does not settle the construct or the ends of the probe. The direction of at least one scale is not stated here.

Target: FMRP RNA-AE (KH1 GKKG / KH2 RNA-KO, KH1-2 di-domain) T236K,H237K,K299D,N300D,del331-396 (human (hFMRP)) (UniProt Q06787)
Assay: NMR titration
Conditions: relative to P1, Kd value only in figure; NMR titrations: 50 uM 15N-protein, 10 mM phosphate pH 6.9, 40 mM NaCl, 0.5 mM TCEP, protein:RNA 1:0 to 1:12; temperature not given; recombinant protein; residues 216-425; protein details: N-terminal 6xHis, cleaved with HRV 3C

Sequence: UGGAC
- binding signal (fold higher affinity than WT): 40
